Measured values from paper PMC3098143.
No constants are given. Whether binding was seen depends on the method and setting. Binding seen in cells or lysates may run through a third protein. Binding can be weak; no strength is given. Sequences can lack the tags named with a protein. Each block holds one molecule with its values, some of them ahead of it.

Tests used:
[1] = target: T1, FLAG-TPR1 (tetratricopeptide repeat 1) (UniProt Q99614); assay: co-IP; HEK 293 co-transfected with Gα and FLAG-TPR1 cDNAs; cells treated with 0.5 mM dithiobis[succinimidylpropionate] before lysis in RIPA buffer; lysate on anti-FLAG affinity agarose gel at 4°C overnight; blot with anti-Gα16 or anti-Gαz
T1 sequence: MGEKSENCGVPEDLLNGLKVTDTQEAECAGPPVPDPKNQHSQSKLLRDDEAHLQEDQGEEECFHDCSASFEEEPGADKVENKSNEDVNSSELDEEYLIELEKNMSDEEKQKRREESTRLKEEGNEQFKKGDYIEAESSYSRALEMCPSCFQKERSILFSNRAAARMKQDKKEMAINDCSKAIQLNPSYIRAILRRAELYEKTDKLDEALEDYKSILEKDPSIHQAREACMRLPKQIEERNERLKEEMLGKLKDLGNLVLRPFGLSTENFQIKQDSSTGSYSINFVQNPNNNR

[2] = target: Gα16QL (constitutively active Gα16) (human); assay: co-IP; reverse direction, same lysates: IP with anti-Gα16 or anti-Gαz antiserum at 4°C overnight and protein G-agarose; blot with anti-FLAG

binding [1]: binds
Molecule: Gα16QL (constitutively active Gα16) (human)

binding [2]: binds
B1: FLAG-TPR1 (tetratricopeptide repeat 1) (protein, UniProt Q99614 1-292)
chain: T1 sequence
